{"source": "patent US20020137154A1", "about": "“Methods for improving cell growth and alcohol production during fermentation” (priority 2000, published 2002)", "key": {"[1]": {"tested_on": "recombinant Escherichia coli KO11", "assay": "Batch fermentation of E. coli KO11 in 1% CSL medium and xylose with nutrient additives: ethanol production and cell growth", "type": "cell-based", "settings": "1% CSL+xylose", "protocol": "(§1) Two types of media were tested: 1% CSL and Luria broth (LB). Each contained 97 g of either xylose or glucose per liter. Luria Broth consists of, per liter: 10 g Difco® Tryptone, 5 g Difco® Yeast Extract and 5 g NaCl. The 1% CSL medium consists of Corn Steep Liquor (1% w/v) plus mineral salts (mineral salts per liter: 1 g of KH2PO4. 0.5 g of K2HPO4, 3.1 g of (NH4)2SO4, 0.4 g of MgCl2·6H2), and 20 mg FeCl3·6H2O).\n(§2) Luria Broth was prepared by autoclaving a 2× nutrient stock containing, per liter: 20 g Difco® Tryptone, 10 g Difo® Yeast Extract, and 10 g NaCl. Sugars (xylose or glucose) were autoclaved separately. A 1% CSL medium was prepared as follows: Commercial Corn Steep Liquor (CSL; 50% dry weight/50% water) was diluted with tap water to make a 20X stock containing 100 g dry weight of Corn Steep Liquor/L and was adjusted to pH 7.2 with NaOH (50%). After sterilization by autoclaving, the 20X CSL stock was clarified by centrifugation at 5000×g for 10 minutes. Magnesium was added as a 100× stock solution (40 g/L MgCl2·6H2O). Iron was added as a 1000× stock solution made by dissolving 20 g FeCl3·6H2O in 175 mL of HCl and adjusting to 1 L with sterile water. Nitrogen, sulfur and phosphorus were added using a 20× stock solution containing the following (per liter): 20 g of KH2PO4, 10 g of K2HPO4 and 62 g of (NH4)2SO4. Stock solutions containing minerals were sterilized separately by autoclaving. Final media was prepared by adding 750 mL of water to 1 L bottle containing 100 g of xylose or glucose.\nInocula were grown in same media used for fermentation and were prepared as follows. Three colonies from a fresh plate were used to inoculate seed cultures: 250-mL flask containing 100 mL medium. These cultures were grown with agitation (120 rpm) for 12-16 hours at 35° C. to a final OD550nm of approximately 2.0-2.5. Cells were harvested by centrifugation at 5000×g for 5 minutes, and resuspended in fresh media to an OD550nm of 0.1. The resulting suspension was distributed into 500-mL beakers containing 345 ml each of fermentation medium. Acetaldehyde was added as indicated. Batch fermentations (35° C., 100 rpm) were maintained at pH 6.5 by the automatic addition of 2N KOH. Cell mass, ethanol, and base addition (2N KOH) were recorded during 96 hours of incubation. […]\n(§3) Additives (e.g., as listed in Table 1) were dissolved in 5 mL di-H2O. Solutions with pH lower than 5 were neutralized to pH 6.5 with 2N KOH. Nutritional supplements were then filter-sterilized (0.45 μm filter disk) directly into the fermentation vessel containing the culture. The final concentration of all additives in the culture medium was 2 g/L unless otherwise indicated.\n(§4) Cell mass was estimated by measuring OD550nm using Baush & Lomb® Spectronic 70 spectrophotometer. […] Ethanol was measured by gas chromatography using a Varian® 3400 CX gas chromatograph with 1-propanol as an internal standard.\n(§5) Tables 1, 3, and 5 show time to completion of fermentation, ethanol production, and volumetric productivity of the fermentation for all concentrations of the compound and the control. Maximum ethanol production is shown in grams/liter (g/L). The ethanol yield is shown in grams of ethanol/grams of added sugar. Maximum volumetric productivity is shown in grams ethanol/(liter)(hour). The average productivity is calculated form the start of fermentation to the completion of fermentation is grams ethanol/(liter)hour).\nTables 2, 4, and 6 show the initial growth of the cells (OD taken after the first 24 hours of fermentation) and the maximum cell density (the time which culture reaches the maximum OD value). […]"}, "[2]": {"tested_on": "recombinant Escherichia coli KO11", "assay": "Batch fermentation of E. coli KO11 in 1% CSL medium and glucose with nutrient additives: ethanol production and cell growth", "type": "cell-based", "settings": "1% CSL+glucose", "protocol": "as §1, §2\nInocula were grown in same media used for fermentation and were prepared as follows. Three colonies from a fresh plate were used to inoculate seed cultures: 250-mL flask containing 100 mL medium. These cultures were grown with agitation (120 rpm) for 12-16 hours at 35° C. to a final OD550nm of approximately 2.0-2.5. Cells were harvested by centrifugation at 5000×g for 5 minutes, and resuspended in fresh media to an OD550nm of 0.1. The resulting suspension was distributed into 500-mL beakers containing 345 ml each of fermentation medium. Acetaldehyde was added as indicated. Batch fermentations (35° C., 100 rpm) were maintained at pH 6.5 by the automatic addition of 2N KOH. Cell mass, ethanol, and base addition (2N KOH) were recorded during 96 hours of incubation.\nEquivalent amounts of distilled water were added instead of the acetaldehyde in control experiments.\nas §3, §4, §5\nTables 2, 4, and 6 show the initial growth of the cells (OD taken after the first 24 hours of fermentation) and the maximum cell density (the time which culture reaches the maximum OD value).\nAcetaldehyde was added to the fermentation medium at five different concentrations and time points. […] Where two additions are indicated, the first volume was added at the start of fermentation and the second was added after 8 hours of fermentation."}, "[3]": {"settings": "additive 2 g/L unless indicated"}}, "note": "At least one read-out could not be matched to a standard name with certainty.", "data": [{"smiles": "C[C@H](N)C(=O)O", "note": "[Alanine, alanine]", "values": [{"measurement": "Time to completion", "setting": "[1]; [3]", "result": ">96", "unit": "h"}]}, {"smiles": "CC(=O)C(=O)O", "note": "[Pyruvate, pyruvate]", "values": [{"measurement": "Initial Growth (OD @ 24 h) % Control", "setting": "[1]; 0.25 g", "result": 97.04, "unit": "%"}, {"measurement": "Initial Growth (OD @ 24 h) OD", "setting": "[1]; 0.25 g", "result": 1.98, "unit": "OD"}, {"measurement": "Maximum Cell Density % Control", "setting": "[1]; 0.25 g", "result": 94.41, "unit": "%"}, {"measurement": "Maximum Cell Density OD", "setting": "[1]; 0.25 g", "result": 2.38, "unit": "OD"}, {"measurement": "Maximum Cell Density Time", "setting": "[1]; 0.25 g", "result": 96, "unit": "h"}, {"measurement": "Time to completion", "setting": "[1]; 0.25 g", "result": ">96", "unit": "h"}, {"measurement": "Initial Growth (OD @ 24 h) % Control", "setting": "[1]; 0.5 g", "result": 100.14, "unit": "%"}, {"measurement": "Initial Growth (OD @ 24 h) OD", "setting": "[1]; 0.5 g", "result": 2.05, "unit": "OD"}, {"measurement": "Maximum Cell Density % Control", "setting": "[1]; 0.5 g", "result": 104.79, "unit": "%"}, {"measurement": "Maximum Cell Density OD", "setting": "[1]; 0.5 g", "result": 2.64, "unit": "OD"}, {"measurement": "Maximum Cell Density Time", "setting": "[1]; 0.5 g", "result": 72, "unit": "h"}, {"measurement": "Time to completion", "setting": "[1]; 0.5 g", "result": ">96", "unit": "h"}, {"measurement": "Initial Growth (OD @ 24 h) % Control", "setting": "[1]; 1 g", "result": 103.56, "unit": "%"}, {"measurement": "Initial Growth (OD @ 24 h) OD", "setting": "[1]; 1 g", "result": 2.12, "unit": "OD"}, {"measurement": "Maximum Cell Density % Control", "setting": "[1]; 1 g", "result": 106.93, "unit": "%"}, {"measurement": "Maximum Cell Density OD", "setting": "[1]; 1 g", "result": 2.69, "unit": "OD"}, {"measurement": "Maximum Cell Density Time", "setting": "[1]; 1 g", "result": 72, "unit": "h"}, {"measurement": "Time to completion", "setting": "[1]; 1 g", "result": ">96", "unit": "h"}, {"measurement": "Initial Growth (OD @ 24 h) % Control", "setting": "[1]; 4 g", "result": 244.69, "unit": "%"}, {"measurement": "Initial Growth (OD @ 24 h) OD", "setting": "[1]; 4 g", "result": 5.00, "unit": "OD"}, {"measurement": "Maximum Cell Density % Control", "setting": "[1]; 4 g", "result": 261.52, "unit": "%"}, {"measurement": "Maximum Cell Density OD", "setting": "[1]; 4 g", "result": 6.58, "unit": "OD"}, {"measurement": "Maximum Cell Density Time", "setting": "[1]; 4 g", "result": 72, "unit": "h"}, {"measurement": "Time to completion", "setting": "[1]; 4 g", "result": 72, "unit": "h"}, {"measurement": "Time to completion", "setting": "[1]; [3]", "result": 72, "unit": "h"}, {"measurement": "Initial Growth (OD @ 24 h) % Control", "setting": "[2]; 4 g", "result": 143.44, "unit": "%"}, {"measurement": "Initial Growth (OD @ 24 h) OD", "setting": "[2]; 4 g", "result": 3.84, "unit": "OD"}, {"measurement": "Maximum Cell Density % Control", "setting": "[2]; 4 g", "result": 151.63, "unit": "%"}, {"measurement": "Maximum Cell Density OD", "setting": "[2]; 4 g", "result": 4.07, "unit": "OD"}, {"measurement": "Maximum Cell Density Time", "setting": "[2]; 4 g", "result": 72, "unit": "h"}, {"measurement": "Time to completion", "setting": "[2]; 4 g", "result": 96, "unit": "h"}, {"measurement": "Maximum Cell Density Time", "setting": "[2]; [3]", "result": 72, "unit": "h"}, {"measurement": "Time to completion", "setting": "[2]; [3]", "result": 96, "unit": "h"}]}, {"smiles": "N[C@@H](CC(=O)O)C(=O)O", "note": "[Aspartate, aspartate]", "values": [{"measurement": "Time to completion", "setting": "[1]; [3]", "result": ">96", "unit": "h"}]}, {"smiles": "O=C(O)CC(O)C(=O)O", "note": "(stereo not drawn) [Malate, malate]", "values": [{"measurement": "Time to completion", "setting": "[1]; [3]", "result": ">96", "unit": "h"}]}]}
